Hit rate of the full screen: of about 300,000 compounds, about 5,400 (1.8%) were called active. Inconclusive results, whose numbers are uncertain, are shown with a selection of clear calls. Calls come from the whole dose curve; tested in HEK293 cells. Potencies beside an inconclusive call are fits to weak or partial responses and may not hold up.
Test: qHTS for inhibitors of binding or entry into cells for Marburg Virus
Conditions: Marburg virus pseudotyped entry inhibition, cell reporter; activity change, negative = inhibition: at 37.8 µM (top of the series) unless noted
% is set by controls: 0 for no effect and ±100 for the full control effect; potency is the fitted concentration of half-maximal effect.

Row | Structure (SMILES) | Potency | activity change, negative = inhibition
1 | COc1cccc(NC(=O)CN(C)C(=O)c2cc(-c3cccc(Br)c3)nc3ccccc23)c1 | inconclusive: 20 µM [inhibitor, partial curve, poor fit] | 
2 | Cc1c(-c2cc(Br)ccc2O)nc2cc3c(cc2c1C)OCO3 | inconclusive: 2.51 µM [activator, partial curve] | 
3 | O=C(CC(NS(=O)(=O)c1ccc(Cl)cc1)c1ccco1)N1CCc2ccccc21 (stereo not given) | inconclusive: 29.1 µM [inhibitor, single point] | 
4 | O=C(NC(C(=O)c1ccccc1)N1CCCCC1)c1ccccc1 (stereo not given) |  | inactive: 8.09%
5 | NC(=O)C1CCN(C(=O)c2ccccc2CCc2ccccc2)CC1 | inconclusive: 6.31 µM [inhibitor, single point] | 
6 | CCCCN(C)CCNC(=O)c1cc2c(-c3cccc(OC)c3)nn(C)c2s1 | inconclusive: 7.08 µM [inhibitor, partial curve, poor fit] | 
7 | O=C(COc1ccc(Br)cc1)Nc1ccc(NC(=O)c2ccccc2)cc1 |  | inactive: -28.7%
8 | COc1ccc(/C=C(\C#N)c2n[nH]c(Cn3cncn3)n2)cc1 | inconclusive: 7.94 µM [inhibitor, partial curve, poor fit] | 
9 | COc1ccc(N2CCN(CCCNC(=O)C3CCN(S(=O)(=O)N4CCOCC4)CC3)CC2)cc1 | inconclusive: 2.82 µM [inhibitor, partial curve, poor fit] | 
10 | O=C(CNC(=O)c1sc2ccccc2c1Cl)NCc1cccnc1 | inconclusive: 17.8 µM [activator, partial curve, poor fit] | 
11 | CN=C(Nc1cc(C)nn1CCC#N)c1ccccc1 |  | inactive: 4.82%
12 | CCN(CC)CCCN(Cc1cc2cc3c(cc2[nH]c1=O)OCO3)C(=S)Nc1ccccc1 | inconclusive: 11.2 µM [inhibitor, partial curve, poor fit] | 
13 | CC(C)NCC(O)COC1CCC(C(C)(C)C)CC1 (stereo not given) | inconclusive: 7.08 µM [inhibitor, partial curve, poor fit] | 
14 | Cn1c(=O)oc(=O)c2ccccc21 | inconclusive: 5.62 µM [activator, single point] | 
15 | C#CCn1c(=NC(=O)c2ccccc2[N+](=O)[O-])sc2cc(S(C)(=O)=O)ccc21 | inconclusive: 6.51 µM [inhibitor, single point] | 
16 | CCc1ccc(NC(=O)Nc2cccc(OC)c2)cc1 | inconclusive: 0.562 µM [activator, full curve, poor fit] | 
17 | Cc1ccc(N(C(=O)CCC(=O)Nc2cc(C)on2)C(C(=O)NC2CCCC2)c2ccncc2)cc1 (stereo not given) | inconclusive: 0.316 µM [inhibitor, full curve, poor fit] | 
18 | O=C(Nc1ccccc1)c1cc2ccccc2o1 | inconclusive: 11.2 µM [inhibitor, single point] | 
19 | COc1ccc(-c2ccc3c(N)c(C(=O)Nc4cc(F)ccc4C)sc3n2)cc1 | inconclusive: 35.5 µM [activator, partial curve, poor fit] | 
20 | CCOC(=O)C1(Cc2ccccc2C)CCCN(C(=O)CN2CCCCC2=O)C1 (stereo not given) |  | inactive: 17.9% [at 46.1 µM]
21 | CCCCN1C(=O)C2(NNc3ccccc3O2)c2ccccc21 (stereo not given) | inconclusive: 35.5 µM [activator, single point] | 
22 | O=C(O)CCC/C=C\C[C@@H]1[C@@H](/C=C/[C@H](O)C2Cc3ccccc3C2)[C@@H](F)C[C@@H]1O |  | inactive: -8.81%

Row | Structure (SMILES) | Potency | activity change, negative = inhibition
23 | O=C(COC(=O)c1ccccc1C(=O)c1ccc(Cl)c([N+](=O)[O-])c1)NC1CCCCCC1 | active: 4.11 µM | 
24 | c1ccc(-c2ccc(-c3nc(-c4cccnc4)no3)cc2)cc1 | inconclusive: 29.1 µM [inhibitor, single point] | 
25 | COc1cccc(N/C(SCc2ccccc2C)=C(/C#N)C(=O)NCc2cccs2)c1 | inconclusive: 8.91 µM [inhibitor, partial curve] | 
26 | CCCCN(C(=O)C(C)Oc1ccc(Br)cc1)c1c(N)n(Cc2ccccc2)c(=O)[nH]c1=O (stereo not given) | inconclusive: 14.1 µM [inhibitor, single point] | 
27 | COc1cccc2cc(C(=O)Nc3ccc(S(=O)(=O)NCC4CCCO4)cc3)c(=O)oc12 (stereo not given) |  | inactive: 4.52% [at 46.1 µM]
28 | Cc1cc(C(=O)COc2cccnc2[N+](=O)[O-])c(C)n1Cc1ccco1 | inconclusive: 35.5 µM [inhibitor, single point] | 
29 | C/C=C/C(=O)OCC(=O)Nc1cccc(S(=O)(=O)NC2=NCCCCC2)c1 | inconclusive: 3.98 µM [inhibitor, partial curve] | 
30 | COc1ccccc1N1CCN(CC(O)COc2cc(C)cc(C)c2)CC1 (stereo not given) | inconclusive: 35.5 µM [inhibitor, single point] | 
31 | O=C1C(Cl)=C(NCCCN2CCOCC2)C(=O)c2ccccc21 | inconclusive: 22.4 µM [inhibitor, partial curve, poor fit] | 
32 | CC1CC1c1ccc(/C=C(\C#N)C(=O)Nc2ccc(Cl)cc2)o1 (stereo not given) | inconclusive: 3.66 µM [activator, single point] | 
33 | Cc1[nH]n(-c2nc(-c3ccccc3)cc(=O)[nH]2)c(=O)c1CCO |  | inconclusive: 46% [activator] [at 46.1 µM]
34 | O=S(=O)(c1ccc(NCC2CCCCC2)nc1)N1CCOCC1 |  | inactive: -0.714% [at 46.1 µM]
35 | COc1cccc(-n2nc(-c3ccnn3-c3ccccc3)c(=O)n(C)c2=O)c1 | inconclusive: 11.2 µM [activator, partial curve, poor fit] | 
36 | COc1cc(-c2cc(O)c(-c3ccc4ccccc4n3)c(=O)[nH]2)cc(OC)c1OC | inconclusive: 10 µM [inhibitor, partial curve] | 
37 | Cn1cc(S(=O)(=O)Nc2cccc3ccccc23)c(=O)n(C)c1=O | inconclusive: 31.6 µM [activator, single point] | 
38 | CCOC(=O)COc1c(OC)cc(Cl)cc1C1Nc2ccccc2C(=O)N1c1ccc(F)cc1 (stereo not given) | inconclusive: 29.1 µM [inhibitor, single point] | 
39 | CC(C)Cc1ccc(C(C)/C=C2/CCC(CN3CCCCC3)C2=O)cc1 (stereo not given) | inconclusive: 35.5 µM [inhibitor, single point] | 
40 | CC(NC(=O)c1cccs1)c1ccc2c(c1)OCO2 (stereo not given) | inconclusive: 0.58 µM [activator, single point] | 
41 | COc1ccccc1NC(=O)Cc1coc2cc(C)ccc12 |  | inactive: 6.9%
42 | Cc1cccc(C)c1NC(=O)C1CCCN1S(=O)(=O)c1ccc(-c2ccc(=O)[nH]n2)s1 (stereo not given) | inconclusive: 6.31 µM [activator, single point] | 
43 | CCOc1ccc(NS(=O)(=O)c2ccc(C(=O)NCC(c3ccccc3OC)N3CCCC3)cc2)cc1 (stereo not given) | inconclusive: 20 µM [inhibitor, single point] | 
44 | CCN(CC)c1cc2nc(C)n(Cc3ccccc3)c(=O)c2cc1NC(=O)C1CC1 | inconclusive: 1.41 µM [inhibitor, partial curve, poor fit] | 

Part of the list above in order of heavy-atom count, falling.
Row | Structure (SMILES) | Potency | activity change, negative = inhibition
39 | CC(C)Cc1ccc(C(C)/C=C2/CCC(CN3CCCCC3)C2=O)cc1 (stereo not given) | inconclusive: 35.5 µM [inhibitor, single point] | 
31 | O=C1C(Cl)=C(NCCCN2CCOCC2)C(=O)c2ccccc21 | inconclusive: 22.4 µM [inhibitor, partial curve, poor fit] | 
41 | COc1ccccc1NC(=O)Cc1coc2cc(C)ccc12 |  | inactive: 6.9%
40 | CC(NC(=O)c1cccs1)c1ccc2c(c1)OCO2 (stereo not given) | inconclusive: 0.58 µM [activator, single point] | 

(continued)

Row | Structure (SMILES) | Potency | activity change, negative = inhibition
45 | CC(CCc1ccccc1)NC(=O)C(C)OC(=O)c1ccco1 (stereo not given) | inconclusive: 10 µM [activator, single point] | 
46 | CC1=C(C)SC(=C(C#N)c2nnc(N3CCOCC3)n2-c2ccccc2)S1 |  | inactive: -1.02%
47 | COC(=O)c1cc2sc(C)cc2n1Cc1ccc(Br)cc1F |  | inactive: 6.54% [at 46.1 µM]
48 | Cc1cc(C)c2c(ccc3ccccc32)n1 | inconclusive: 0.708 µM [activator, full curve, poor fit] | 
49 | NS(=O)(=O)c1ccc(NC(=O)CCC(=O)N2CCOCC2)cc1 |  | inactive: 6.41% [at 46.1 µM]
50 | COC(=O)c1ccc(/C=C(\C#N)C(=O)NC(C)c2ccccc2)cc1 (stereo not given) |  | inactive: 5.34%
51 | CCOc1ccc(NS(=O)(=O)c2csc(C(N)=O)c2)cc1 | inconclusive: 1.26 µM [activator, single point] | 
52 | COc1ccc(CNC(=O)CCC(=O)Nc2nnc(C(C)C)s2)cc1 | inconclusive: 7.08 µM [inhibitor, partial curve, poor fit] | 
53 | Cc1cccc(OCc2nc(-c3cccnc3)no2)c1 |  | inactive: 4.5%
54 | Cc1ccc2oc(=O)c(/C=C(\O)C(C)(C)C)nc2c1 |  | inactive: 13.7% [at 46.1 µM]
55 | COc1cccc(-n2c(=S)sc3c(=O)n(-c4ccccc4OC)c(SCC4OCCO4)nc32)c1 | inconclusive: 10 µM [activator, partial curve, poor fit] | 
56 | CCC(C)NS(=O)(=O)c1ccc(S(=O)(=O)N2CCCC3(CCCCC3)C2)cc1 (stereo not given) | inconclusive: 6.51 µM [inhibitor, partial curve] | 
57 | COc1ccccc1CCNC1CCC(C)CC1 (stereo not given) | inconclusive: 14.1 µM [inhibitor, partial curve, poor fit] | 
58 | CCCCNC(=S)NNC(=O)c1csc(C)c1CC | inconclusive: 0.562 µM [activator, full curve, poor fit] | 
59 | C[C@@H]1C=CCCO[C@]12C(=O)N(Cc1ccccc1C(F)(F)F)c1cccc(Br)c12 | inconclusive: 0.0168 µM [inhibitor, full curve, poor fit] | 
60 | COC(=O)c1ccc(/C=C/c2ccc3cccc(OC(C)=O)c3n2)cc1 | inconclusive: 35.5 µM [inhibitor, single point] | 
61 | CCOC(=O)c1ccc(NC(=O)CC2SCCNC2=O)cc1 (stereo not given) |  | inactive: 9.46%
62 | CCCCOc1ccc(C(=O)N(Cc2ccc(C(C)C)cc2)C2CCS(=O)(=O)C2)cc1 (stereo not given) | inconclusive: 1.41 µM [inhibitor, partial curve, poor fit] | 
63 | Cc1ccc(C)c(Nc2ccc(C(=O)NCCc3ccccc3)cn2)c1 |  | inactive: 23.3%
64 | O=C(O)c1cccc(Cn2c(Cl)c(/C=N/NC(=O)c3ccccc3)sc2=O)c1 |  | inactive: 8.8%
65 | COc1cccc(N(C(=O)Cn2nnc(-c3ccc(C)cc3)n2)C(C(=O)NC(C)(C)C)c2c[nH]c3ccccc23)c1 (stereo not given) | inconclusive: 29.1 µM [inhibitor, single point] | 
